At least one compound was matched to its structure with a doubt left.
Columns and labels:
[1] = system: CHO cells stably expressing HSPDE4A4B-GFP; assay: cellular cAMP content (kit RPA538) in CHO cells stably expressing HSPDE4A4B-GFP; type: cell-based, Chinese hamster; details: forskolin 0.3 μM to 100 μM, 60 minutes
Procedure: (§1) After the incubation period, cAMP content is measured using a commercial kit from Amersham-Pharmacia Biotech, kit # RPA538, according to the manufacturers instructions.
(§2) The amount of cAMP/well was calculated using regression analysis from a cAMP standrad curve, as recommended by the manufacturers of the assay kit.
(§3) After the incubation period, cAMP content is measured using a commercial kit from Amersham-Pharnacia Biotech, kit # RPA538, according to the manufacturers instructions.
CHO cells stably expressing HSPDE4A4B-GFP (see Example 2), and untransfected CHO cells are seeded into individual wells of a 96-well microtiter plate at a density of 1.2×10^5 cells/well, and cultured for 16 to 18 hours in HAM F-12 medium with glutamax, 100 μg penicillin-streptomycin mixture ml^−1 and 10% FBS. […] After the treatment period, cAMP content is measured using a commercial kit from Amersham-Pharmacia Biotech, kit # RPA538, according to the manufacturers instructions.

untransfected CHO cells = assay: cellular cAMP content (kit RPA538) in untransfected CHO cells; type: cell-based, Chinese hamster; details: various concentrations of forskolin, 60 minutes
Procedure: as §1, §2, §3
CHO cells stably expressing HSPDE4A4B-GFP (see Example 2), and untransfected CHO cells are seeded into individual wells of a 96-well microtiter plate at a density of 1.2×10^5 cells/well, and cultured for 16 to 18 hours in HAM F-12 medium with glutamax, 100 μg penicillin-streptomycin mixture ml^−1 and 10% FBS. After 16 to 18 hours incubation, cells are treated for 60 minutes with various concentrations of forskolin. After the treatment period, cAMP content is measured using a commercial kit from Amersham-Pharmacia Biotech, kit # RPA538, according to the manufacturers instructions.

HSPKAcat-EGFP = assay: time-lapse imaging of CHO cells expressing HSPKAcat-EGFP; type: cell-based, human; details: I micromolar forskolin at t=0, period of minutes

With `C=C[C@@]1(C)CC(=O)[C@]2(O)[C@@]3(C)[C@@H](O)CCC(C)(C)[C@@H]3[C@H](O)[C@H](OC(C)=O)[C@@]2(C)O1` [forskolin] the “cellular cAMP concentration, forskolin treatment” value [1] was “no appreciable increase”, the “cellular cAMP, forskolin treatment” value (untransfected CHO cells) was “dose-dependent increase” and the “redistribution of PKA catalytic subunit-EGFP” value (HSPKAcat-EGFP) was “redistributes from the bright aggregates into the cytoplasm”.

Source: patent publication US7282347B2, “Method for extracting quantitative information relating to interactions between cellular components” (Fisher Bioimage APS, priority 2000, dated 2007)
